Test results: the supplement of paper PMC10849652
The other results are listed elsewhere or left out.

Amino acid sequences for entries named in this document (tags omitted). A change or cut given only in a name is not applied to a line headed by its entry.
UniProt P42338: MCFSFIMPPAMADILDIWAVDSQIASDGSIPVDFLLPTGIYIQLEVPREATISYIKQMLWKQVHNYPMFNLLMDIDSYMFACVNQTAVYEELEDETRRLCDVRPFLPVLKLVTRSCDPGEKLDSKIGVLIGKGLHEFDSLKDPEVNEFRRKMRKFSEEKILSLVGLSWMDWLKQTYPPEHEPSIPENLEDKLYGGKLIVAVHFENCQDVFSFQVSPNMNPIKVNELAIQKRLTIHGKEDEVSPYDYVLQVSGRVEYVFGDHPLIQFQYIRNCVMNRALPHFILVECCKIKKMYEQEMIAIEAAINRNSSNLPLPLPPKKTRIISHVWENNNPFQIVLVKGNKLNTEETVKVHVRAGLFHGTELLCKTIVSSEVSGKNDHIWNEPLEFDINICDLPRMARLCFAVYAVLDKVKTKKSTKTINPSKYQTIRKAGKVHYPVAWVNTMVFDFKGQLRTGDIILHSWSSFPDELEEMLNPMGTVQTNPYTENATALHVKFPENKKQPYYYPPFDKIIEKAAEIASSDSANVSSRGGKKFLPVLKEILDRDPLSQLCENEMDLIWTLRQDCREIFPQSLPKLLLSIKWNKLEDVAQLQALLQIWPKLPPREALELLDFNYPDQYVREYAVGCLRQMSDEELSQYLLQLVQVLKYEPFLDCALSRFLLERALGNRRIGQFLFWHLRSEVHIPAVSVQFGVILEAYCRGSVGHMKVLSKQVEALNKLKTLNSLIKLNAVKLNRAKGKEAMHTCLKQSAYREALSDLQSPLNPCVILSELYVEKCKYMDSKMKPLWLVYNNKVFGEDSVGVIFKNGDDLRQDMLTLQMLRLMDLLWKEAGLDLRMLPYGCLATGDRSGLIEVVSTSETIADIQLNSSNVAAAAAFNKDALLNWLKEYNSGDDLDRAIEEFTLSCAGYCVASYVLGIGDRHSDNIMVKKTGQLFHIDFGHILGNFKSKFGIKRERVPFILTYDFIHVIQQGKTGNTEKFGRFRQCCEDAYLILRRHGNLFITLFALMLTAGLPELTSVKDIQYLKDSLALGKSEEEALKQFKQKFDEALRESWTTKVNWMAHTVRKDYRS
UniProt P78356: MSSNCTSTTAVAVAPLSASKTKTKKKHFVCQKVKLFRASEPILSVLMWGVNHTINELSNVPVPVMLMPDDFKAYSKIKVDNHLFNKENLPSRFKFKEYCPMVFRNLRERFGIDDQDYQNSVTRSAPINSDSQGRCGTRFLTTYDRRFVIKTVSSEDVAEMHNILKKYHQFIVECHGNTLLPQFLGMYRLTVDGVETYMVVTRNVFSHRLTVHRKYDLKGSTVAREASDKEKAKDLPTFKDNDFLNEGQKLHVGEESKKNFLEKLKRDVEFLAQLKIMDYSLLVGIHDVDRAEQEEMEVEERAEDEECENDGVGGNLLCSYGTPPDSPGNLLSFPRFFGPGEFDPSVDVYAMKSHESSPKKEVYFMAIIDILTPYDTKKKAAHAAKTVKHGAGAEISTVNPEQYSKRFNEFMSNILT
UniProt Q9Y263: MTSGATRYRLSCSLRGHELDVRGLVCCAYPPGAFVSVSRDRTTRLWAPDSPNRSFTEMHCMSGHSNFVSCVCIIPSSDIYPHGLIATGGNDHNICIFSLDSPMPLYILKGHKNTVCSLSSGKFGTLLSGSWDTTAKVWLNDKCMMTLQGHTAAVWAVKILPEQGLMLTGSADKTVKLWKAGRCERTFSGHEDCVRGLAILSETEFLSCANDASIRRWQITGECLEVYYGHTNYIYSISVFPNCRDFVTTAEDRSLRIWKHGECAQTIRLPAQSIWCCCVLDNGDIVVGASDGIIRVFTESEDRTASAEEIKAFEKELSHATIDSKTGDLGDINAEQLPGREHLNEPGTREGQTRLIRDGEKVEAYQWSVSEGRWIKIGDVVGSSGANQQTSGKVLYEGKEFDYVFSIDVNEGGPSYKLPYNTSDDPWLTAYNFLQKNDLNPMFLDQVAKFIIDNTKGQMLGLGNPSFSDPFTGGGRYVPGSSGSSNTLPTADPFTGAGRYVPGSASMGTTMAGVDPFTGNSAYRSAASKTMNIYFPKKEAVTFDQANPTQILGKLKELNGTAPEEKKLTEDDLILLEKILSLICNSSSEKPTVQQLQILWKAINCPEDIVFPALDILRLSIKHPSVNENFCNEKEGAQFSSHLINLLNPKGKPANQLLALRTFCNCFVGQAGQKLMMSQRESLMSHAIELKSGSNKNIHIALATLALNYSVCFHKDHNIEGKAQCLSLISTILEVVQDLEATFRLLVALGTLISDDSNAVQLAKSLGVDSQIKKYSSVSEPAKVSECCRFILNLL
UniProt Q96S99: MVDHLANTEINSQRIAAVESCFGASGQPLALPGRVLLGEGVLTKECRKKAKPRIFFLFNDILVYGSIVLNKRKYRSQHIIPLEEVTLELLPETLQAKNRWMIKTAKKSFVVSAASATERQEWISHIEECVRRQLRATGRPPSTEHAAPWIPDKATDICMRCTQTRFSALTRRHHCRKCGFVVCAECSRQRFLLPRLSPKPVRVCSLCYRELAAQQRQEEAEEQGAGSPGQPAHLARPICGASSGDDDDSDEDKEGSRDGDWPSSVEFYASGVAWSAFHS
UniProt Q92643: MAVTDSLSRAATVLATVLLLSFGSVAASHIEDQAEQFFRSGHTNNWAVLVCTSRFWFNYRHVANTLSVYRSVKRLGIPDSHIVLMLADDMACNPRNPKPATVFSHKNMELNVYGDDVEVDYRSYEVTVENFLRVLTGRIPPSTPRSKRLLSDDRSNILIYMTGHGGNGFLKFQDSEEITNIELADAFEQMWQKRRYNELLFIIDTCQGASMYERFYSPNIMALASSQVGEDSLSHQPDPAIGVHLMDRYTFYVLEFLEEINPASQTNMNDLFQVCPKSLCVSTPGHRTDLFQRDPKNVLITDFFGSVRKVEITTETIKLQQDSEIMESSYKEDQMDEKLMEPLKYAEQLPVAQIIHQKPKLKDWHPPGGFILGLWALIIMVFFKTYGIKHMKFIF
UniProt Q96S52: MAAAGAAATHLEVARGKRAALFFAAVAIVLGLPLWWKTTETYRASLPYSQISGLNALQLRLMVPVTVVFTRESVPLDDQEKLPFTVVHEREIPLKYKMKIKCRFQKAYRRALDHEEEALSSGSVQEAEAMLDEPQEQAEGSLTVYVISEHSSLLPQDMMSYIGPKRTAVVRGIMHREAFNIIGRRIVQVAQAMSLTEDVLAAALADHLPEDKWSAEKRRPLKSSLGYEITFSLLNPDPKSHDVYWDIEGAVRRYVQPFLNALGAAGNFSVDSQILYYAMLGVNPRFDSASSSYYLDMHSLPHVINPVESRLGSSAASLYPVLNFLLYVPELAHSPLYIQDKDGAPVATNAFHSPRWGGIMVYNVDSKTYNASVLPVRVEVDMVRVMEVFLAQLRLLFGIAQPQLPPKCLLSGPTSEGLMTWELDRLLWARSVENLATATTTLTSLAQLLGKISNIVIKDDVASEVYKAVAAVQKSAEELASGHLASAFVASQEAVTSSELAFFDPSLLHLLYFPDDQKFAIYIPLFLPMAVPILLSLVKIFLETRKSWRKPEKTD
UniProt Q16513: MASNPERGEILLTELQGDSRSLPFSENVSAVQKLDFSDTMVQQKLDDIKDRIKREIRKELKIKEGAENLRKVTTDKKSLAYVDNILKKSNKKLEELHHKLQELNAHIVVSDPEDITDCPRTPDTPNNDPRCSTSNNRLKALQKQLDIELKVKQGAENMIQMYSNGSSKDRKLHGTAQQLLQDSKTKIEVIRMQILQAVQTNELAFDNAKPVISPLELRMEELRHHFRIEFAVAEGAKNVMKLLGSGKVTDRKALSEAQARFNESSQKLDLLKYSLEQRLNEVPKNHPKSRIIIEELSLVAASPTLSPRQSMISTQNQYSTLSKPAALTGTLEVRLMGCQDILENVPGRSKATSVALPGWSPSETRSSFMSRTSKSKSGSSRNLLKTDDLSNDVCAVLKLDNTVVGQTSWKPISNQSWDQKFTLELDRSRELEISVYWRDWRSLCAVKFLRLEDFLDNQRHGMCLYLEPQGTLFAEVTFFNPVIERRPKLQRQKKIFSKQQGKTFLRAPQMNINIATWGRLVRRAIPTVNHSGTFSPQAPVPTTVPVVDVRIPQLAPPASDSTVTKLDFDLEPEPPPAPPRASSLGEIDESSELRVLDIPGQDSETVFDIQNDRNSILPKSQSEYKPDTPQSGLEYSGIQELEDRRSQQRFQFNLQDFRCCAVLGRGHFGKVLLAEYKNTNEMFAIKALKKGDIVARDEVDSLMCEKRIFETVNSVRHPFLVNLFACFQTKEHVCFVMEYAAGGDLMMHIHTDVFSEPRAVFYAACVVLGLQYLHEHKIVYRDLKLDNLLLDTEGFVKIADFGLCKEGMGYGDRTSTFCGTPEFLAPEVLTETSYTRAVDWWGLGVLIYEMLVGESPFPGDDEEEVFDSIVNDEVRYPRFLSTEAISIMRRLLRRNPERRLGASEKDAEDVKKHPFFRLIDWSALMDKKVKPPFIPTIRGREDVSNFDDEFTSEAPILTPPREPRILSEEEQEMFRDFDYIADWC
UniProt Q9BZM1: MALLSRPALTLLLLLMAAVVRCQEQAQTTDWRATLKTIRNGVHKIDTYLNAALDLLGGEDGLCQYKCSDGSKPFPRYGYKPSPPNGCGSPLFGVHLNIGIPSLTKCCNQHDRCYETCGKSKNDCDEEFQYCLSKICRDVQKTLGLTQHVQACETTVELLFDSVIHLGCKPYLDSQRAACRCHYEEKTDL

Key:
Experiment in all cases: log2 fold change, soluble protein after heating vs DMSO (PISA); higher = thermal stabilisation; K562 lysate, 10 uM; active = over 0.2 and 3.5 SD of the protein, either way, in both replicates (recomputed)
[1] = compound: C=CC(=O)N1CCC[C@@H](n2nc(-c3ccc(Oc4ccccc4)cc3)c3c(N)ncnc32)C1 [ibrutinib]
How it was run: (§1)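 Dounce homogenisation of K562 pellets in PBS pH 7.4 with 1 mM MgCl2 produced a crude extract, used at 1 mg/mL protein. Exposure to 10 μM compound lasted 30 min, and aliquots were then heated for 3 min across 48°C-58°C, pooled and brought to 0.5% NP-40 at 4°C. The supernatant after 21,000xg for 90 min was quantified by TMTpro 16plex LC-MS/MS with channel sums equalised. Duplicate values are given as log-two fold change in thermal stability relative to solvent controls.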

[2] = compound: CC(=O)c1cnc2ccc(-c3cc(Cl)c(O)c(Cl)c3)nc2c1N[C@H]1CC[C@H](CN(C)C)CC1
How it was run: as §1

[3] = compound: CC(C)(C)Cn1c(N)nc2ccc(-c3[nH]c(C(C)(C)C)nc3-c3ccc(F)cc3)nc21 [ralimetinib]
How it was run: as §1

[4] = compound: CC(C)(O)CC(=O)NCCn1ccc2ncnc(Nc3ccc(Oc4cccc(C(F)(F)F)c4)c(Cl)c3)c21
How it was run: as §1

[5] = compound: CC(C)C1=C2N=C(C=C(N2N=C1)NCC3=CC=CC=C3)NCCCCCCN
How it was run: as §1

[6] = compound: CC1=C(C(CC(=O)N1)C2=CC=C(C=C2)C(F)(F)F)C(=O)NC3=C(C=C4C(=C3)C=NN4)F
How it was run: as §1

[7] = compound: CC1=C(C2=C(C=C1)C(=O)C3=CC=CC=C3N2CCCN)C
How it was run: as §1

[8] = compound: CC1=C(C=C(C=C1)NC(=O)C2=CC(=CC=C2)C(C)(C)C#N)NC3=CC4=C(C=C3)N=CN(C4=O)C
How it was run: as §1

[9] = compound: CC1=C(C=C(C=C1)NC(=O)C2=CC(=CC=C2)N(C)C)NC(=O)C3=CC=C(C=C3)O
How it was run: as §1

[10] = compound: CC1=CC=C(C=C1)SC2=C3C=C(SC3=CN=C2)C(=O)N
How it was run: as §1

[11] = compound: CCCS(=O)(=O)Nc1ccc(F)c(C(=O)c2c[nH]c3ncc(-c4ccc(Cl)cc4)cc23)c1F [vemurafenib]
How it was run: as §1

[12] = compound: CCCS(=O)(=O)Nc1ccc(F)c(C(=O)c2c[nH]c3ncc(Cl)cc23)c1F
How it was run: as §1

[13] = compound: CCN(CCCOc1ccc2c(Nc3cc(CC(=O)Nc4cccc(F)c4)[nH]n3)ncnc2c1)CCOP(=O)(O)O [barasertib]
How it was run: as §1

[14] = compound: CC[C@@H]1C(=O)N(C)c2cnc(Nc3ccc(C(=O)NC4CCN(C)CC4)cc3OC)nc2N1C1CCCC1
How it was run: as §1

[15] = compound: CC[C@@H]1C(=O)N(C)c2cnc(Nc3ccc(C(=O)N[C@H]4CC[C@H](N5CCN(CC6CC6)CC5)CC4)cc3OC)nc2N1C(C)C [volasertib]
How it was run: as §1

[16] = compound: CCn1c(C(=O)N(C2CC2)C2CC2)cc2c3c(ncn3C)c(Nc3cc(C)n(C)n3)nc21
How it was run: as §1

[17] = compound: CCn1cc(-c2ccnc3[nH]c(-c4cccc(CN(C)C)c4)cc23)c(-c2ccc(NC(=O)N(C)C)cc2)n1
How it was run: as §1

[18] = compound: CN1CCC(CNc2ccc3ncc(-c4cccc(OC(F)(F)F)c4)n3n2)CC1
How it was run: as §1

[19] = compound: CN1CCN(CCOc2cc(OC3CCOCC3)c3c(Nc4c(Cl)ccc5c4OCO5)ncnc3c2)CC1 [saracatinib]
How it was run: as §1

[20] = compound: CN1CCN(c2nc(C3=C(c4c[nH]c5ccccc45)C(=O)NC3=O)c3ccccc3n2)CC1 [sotrastaurin]
How it was run: as §1

Measured: log2 fold change

PIK3CB (UniProt P42338)
inactive: [1] -0.009 | [2] 0.388 | [3] -0.011 | [4] -0.005 | [5] -0.076 | [6] -0.003 | [7] 0.035 | [8] -0.012 | [9] 0.056 | [10] 0.018 | [11] -0.079 | [12] 0.001 | [13] 0.011 | [14] 0.314 | [15] -0.025 | [16] -0.07 | [17] -0.02 | [18] 0.427 | [19] -0.03 | [20] 0.158

PIP4K2B (UniProt P78356)
inactive: [1] -0.002 | [2] 0.043 | [3] 0.016 | [4] 0.023 | [5] -0.032 | [6] -0.043 | [7] -0.022 | [8] 0.087 | [9] -0.044 | [10] -0.031 | [11] 0.016 | [12] 0.012 | [13] -0.045 | [15] 0.092 | [16] 0.038 | [17] 0.048 | [18] 0.065 | [19] -0.045 | [20] -0.009
active: [14] 0.21

PLAA (UniProt Q9Y263)
inactive: [1] 0.01 | [2] 0.008 | [3] 0.012 | [4] -0.018 | [5] -0.006 | [6] 0.031 | [7] 0.009 | [8] 0.017 | [9] 0.016 | [10] 0.012 | [11] -0.036 | [12] 0.01 | [13] 0.03 | [14] -0.027 | [15] -0.041 | [16] 0.018 | [17] -0.082 | [18] 0.069 | [19] 0.002 | [20] 0.035

PLEKHF1 (UniProt Q96S99)
inactive: [1] -0.004 | [2] 0.015 | [3] 0.053 | [4] -0.042 | [5] 0.002 | [6] -0.069 | [7] -0.025 | [8] -0.002 | [9] -0.017 | [10] 0.015 | [11] 0.019 | [12] -0.008 | [13] 0.004 | [14] -0.004 | [15] 0.002 | [16] 0.059 | [17] -0.062 | [18] 0.018 | [19] 0.007 | [20] -0.028

PIGK (UniProt Q92643)
inactive: [1] 0.054 | [2] 0.025 | [3] 0.014 | [4] -0.06 | [5] -0.059 | [6] 0.12 | [7] -0.035 | [8] 0.011 | [9] 0.077 | [10] -0.001 | [11] 0.035 | [12] 0.047 | [13] -0.035 | [14] 0.004 | [15] -0.026 | [16] -0.02 | [17] -0.113 | [18] 0.101 | [19] 0.012 | [20] 0.006

PIGS (UniProt Q96S52)
inactive: [1] 0.024 | [2] 0.02 | [3] -0.044 | [4] -0.081 | [5] 0.01 | [6] 0.056 | [7] 0.073 | [8] -0.004 | [9] 0.003 | [10] 0.005 | [11] 0.008 | [12] 0.015 | [13] 0.05 | [14] 0.109 | [15] -0.039 | [16] 0.023 | [17] -0.027 | [18] -0.006 | [19] -0.001 | [20] -0.04

PKN2 (UniProt Q16513)
inactive: [1] -0.003 | [2] -0.074 | [3] 0.036 | [4] -0.007 | [5] -0.009 | [6] 0.027 | [7] 0.018 | [8] 0.038 | [9] 0.016 | [10] 0.013 | [11] 0.05 | [12] 0.04 | [13] 0.081 | [15] -0.004 | [16] -0.002 | [17] -0.012 | [18] -0.086 | [19] 0.027

PLA2G12A (UniProt Q9BZM1)
inactive: [1] -0.187 | [2] -0.061 | [3] -0.107 | [4] 0.025 | [5] -0.002 | [6] 0.059 | [7] -0.065 | [8] -0.118 | [9] -0.117 | [10] -0.102 | [11] -0.074 | [12] 0.05 | [13] -0.229 | [15] -0.069 | [16] 0.018 | [17] 0.048 | [18] -0.137 | [19] -0.003 | [20] 0.138
